Experimental findings from the supplement of paper PMC3334620 are described below.

The full ranking holds about 33,000 sequences; the median of “E-score (-0.5 to 0.5)” is about -0.0034, and the highest 2% start at about 0.25. The list shows a part of the results.

The experiment addresses T1, Yap3 (UniProt P38749).
T1 sequence: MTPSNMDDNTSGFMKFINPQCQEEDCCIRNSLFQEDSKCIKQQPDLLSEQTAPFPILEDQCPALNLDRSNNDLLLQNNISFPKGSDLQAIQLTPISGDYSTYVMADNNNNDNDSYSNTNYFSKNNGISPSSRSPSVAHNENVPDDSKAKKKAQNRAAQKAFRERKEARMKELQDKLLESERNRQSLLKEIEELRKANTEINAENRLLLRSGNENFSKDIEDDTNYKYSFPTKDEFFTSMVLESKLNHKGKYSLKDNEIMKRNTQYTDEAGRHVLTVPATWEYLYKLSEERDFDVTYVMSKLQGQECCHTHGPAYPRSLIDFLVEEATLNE
As to the kind of experiment: PBM E-score (8-mer binding enrichment) (E-score (-0.5 to 0.5)); higher = stronger / more preferred TF binding. Conditions: protein concentration: 100 nM; construct: GST-full length. The method in brief: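 Using PURExpress in vitro transcription/translation, GST-tagged yeast transcription factors were made in full-length or DNA-binding-domain form. These were applied at about 100-200 nM to double-stranded universal all-10-mer Agilent arrays, and bound protein was detected with fluorescent anti-GST. Scans were normalised with masliner before the Universal PBM Analysis Suite assigned E-scores to ungapped eight-base words pooled with their reverse complements.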
Take CGGCGGTA: the “PBM E-score” value came out at 0.0962. The value for GTTATAGA was 0.0873; that for AAAAAATG was 0.209; that for ATGGAGCG was -0.0284.

As to ATCTAACA, the “PBM E-score” value worked out at 0.12. Consider CGCCACAA, for which the “PBM E-score” value stood at 0.099. The value for ACTCCCCT was -0.237; that for CAAAGTGC was -0.0192; that for GATCCTAC was 0.0997. The same measure for ACTATCAC: -0.00788; for AAGGTACT: -0.00394. The value for CTGTGGCA was -0.0995; that for TAGATCCA was -0.0672. For the sequence GGGGCCGA, the “PBM E-score” value was -0.41. On to CCTTTGAA, for which the “PBM E-score” value was -0.0403.

In the case of CATAGTAA, the “PBM E-score” value was 0.198. The same measure for TCGCCACA: 0.141; for CGTGATTC: -0.00456. The value for ACGGGGGC was -0.379. In the case of GAGGCGGA, the “PBM E-score” value is -0.157. Regarding CCAACAGC, the “PBM E-score” value was found to be 0.0293. The value for ACTCGTAA was 0.206; that for CCTGTTAG was 0.121. On to ATCTGGCG, for which the “PBM E-score” value is -0.097. For the sequence CATATATC, the “PBM E-score” value turned out to be 0.127. The value for AAGTACCC was -0.147; that for CGCTGGTC was -0.307. ATCTCTGG: the “PBM E-score” value is -0.271.

Consider AGGTGTAA, for which the “PBM E-score” value amounted to 0.159. The value for ATCGCGAT was 0.207.

As to CCAGACAG, the “PBM E-score” value was -0.122.

With TGGTGACA, the “PBM E-score” value was 0.0844. The value for CACAGGAA was 0.00598; that for GCATTGAC was -0.0769; that for ACAATCGG was 0.103. GGGTGTGA: the “PBM E-score” value is -0.263. The same measure for CCTCCGCA: -0.2; for CATCCATA: 0.128.

As for TACCCATA, the “PBM E-score” value is -0.00499.

Take GCTAGCAC: the “PBM E-score” value is -0.0793. The value for GCAGCGGA was 0.0629. The same measure for AAGTGACA: 0.177; for GCACTCGC: -0.0885. For GCTCCTCC, the “PBM E-score” value is -0.294. For CACCGCAA, the “PBM E-score” value is 0.134. The value for AGACAAAA was 0.0827. ATGCTGGA: the “PBM E-score” value was determined as 0.0591. The same measure for GAGCTTCC: 0.0263; for AACACGAC: 0.0761; for GGTGTTAC: -0.09. The value for CCACCTCA was -0.101; that for ACTTAGCA was -0.0984; that for AATCTCAA was 0.134. The same measure for GGGATAGA: 0.0132. For the sequence GATGTGCC, the “PBM E-score” value is -0.0417.

Take GACCTGGC: the “PBM E-score” value is -0.116.

Turning to AACATGGA, the “PBM E-score” value is 0.0539. The value for AACCCACA was 0.0388; that for CCCGATCA was -0.27; that for CAGAATTC was -0.0196.

Regarding CACAGTGG, the “PBM E-score” value was -0.0278. As for GGACCGAC, the “PBM E-score” value was -0.16. Take AAGAAGAC: the “PBM E-score” value worked out at 0.0114.

As to CGCAGACC, the “PBM E-score” value was -0.287. For the sequence ATCTTCTG, the “PBM E-score” value amounted to 0.0431. In the case of CCCGACGC, the “PBM E-score” value is -0.144. AGATAGCC: the “PBM E-score” value is -0.173. The same measure for AGGAGTAT: -0.0208; for CCGATAGC: -0.203. As to AGTAACGG, the “PBM E-score” value was 0.0541.

As to GGGATCAC, the “PBM E-score” value is -0.211. CGGCCCTC: the “PBM E-score” value was -0.266. Take AAGACGCG: the “PBM E-score” value is -0.0599. For the sequence ACACAATG, the “PBM E-score” value was 0.208. The same measure for ACATCCGA: -0.0314.

As for TAATGACA, the “PBM E-score” value was 0.197.

Regarding CAAGGGGC, the “PBM E-score” value was -0.123.

On to ACCTGTTG, for which the “PBM E-score” value was 0.0774. The same measure for GAGGCACC: -0.278; for CGGTTCTC: -0.187; for CCGCTACG: -0.213.

On to CCACGTCC, for which the “PBM E-score” value is -0.13. The same measure for ACGACTTC: -0.058. For GGCGTACA, the “PBM E-score” value was -0.106. With ATATTCAC, the “PBM E-score” value came to 0.254. The value for CAATTTAA was 0.103.
